Our source for the T/C and survivor count values is PubChem BioAssay AID248 (DTP/NCI, 2004).

The list is a part of this screen's results and no random one: it is rich in T/C values a quarter to a half above the control, in often repeated tests (any T/C) and in doses without a T/C. Further doses and runs are listed elsewhere. T/C: endpoint of the treated group in % of that of the vehicle group. Some doses have a count of surviving animals in place of a T/C: the source holds a T/C of zero for them, seemingly a mark for toxic or unscored doses. Some doses without a T/C left all or most animals alive at the check, yet need not have been tolerated: the source hardly ever lists a survival T/C far under the control, and the zero likely stands for such cases as well. Counts of survivors are from the toxicity check (mostly the fifth day) where no day follows; animals may have died later. Schedule codes are those of the source, read here as Q, the interval in days (D) or hours (H), X, the number of doses. Some entries hold several experiments; their values stand side by side, smallest first. Some schedule codes hold Z or #, which are not explained here. Where survival is the endpoint, this PubChem deposit counts one and a half times the control or more as active, and values a quarter to a half above the control carry no call in these data; other NCI protocols may use other cut-offs. Some T/C values carry the count of animals alive at the toxicity check (mostly the fifth day); without a count, all were alive then.

The subject of the assay is L1210 leukemia ip in BDF1 mice, survival T/C. The assay can be described thus: NCI In Vivo Anticancer Drug Screen. Data for tumor model L1210 Leukemia (intraperitoneal) in B6D2F1 (BDF1) mice. The settings on record: T/C endpoint: mean survival time, higher T/C = longer survival.
Where [1] appears, read: dose: 100.0 mg/kg/injection, schedule: Q01DX001 (ip), vehicle: carboxymethylcellulose (CMC).
Setting [2] is: dose: 200.0 mg/kg/injection, schedule: Q01DX001 (ip), vehicle: carboxymethylcellulose (CMC).
Setting [3] is: dose: 100.0 mg/kg/injection, schedule: Q01DX001 (ip), vehicle: saline.
[4] abbreviates: dose: 200.0 mg/kg/injection, schedule: Q01DX001 (ip), vehicle: saline.
[5] abbreviates: dose: 400.0 mg/kg/injection, schedule: Q01DX001 (ip), vehicle: saline.
[6] abbreviates: dose: 100.0 mg/kg/injection, schedule: Q01DX009 (ip), vehicle: Klucel (hydroxypropylcellulose) (HPC).
Setting [7] is: dose: 100.0 mg/kg/injection, schedule: Q01DX009 (ip), vehicle: other.
[8] abbreviates: dose: 200.0 mg/kg/injection, schedule: Q04DX003 (ip), vehicle: saline with Tween-80.
Where [9] appears, read: dose: 400.0 mg/kg/injection, schedule: Q01DX009 (ip), vehicle: Klucel (hydroxypropylcellulose) (HPC).

Consider `O=C(NCCCCCCCCCCNC(=O)Nc1ccc(C2=NCCCN2)cc1)Nc1ccc(C2=NCCCN2)cc1`, for which the T/C was 130 % of control (dose: 8.0 mg/kg/injection, schedule: Q01DX009 (ip), vehicle: other); 127 % of control (dose: 12.5 mg/kg/injection, schedule: Q01DX009 (ip), vehicle: other); 146 % of control (dose: 12.5 mg/kg/injection, schedule: Q01DX Z (ip), vehicle: carboxymethylcellulose (CMC)); 144 % of control (dose: 19.0 mg/kg/injection, schedule: Q01DX009 (ip), vehicle: other). In addition, the survivor count was 0 of 6 (dose: 29.0 mg/kg/injection, schedule: Q01DX009 (ip), vehicle: other); 1 of 6 (dose: 75.0 mg/kg/injection, schedule: Q01DX001 (ip), vehicle: other); 1 of 6 (dose: 150.0 mg/kg/injection, schedule: Q01DX001 (ip), vehicle: other); 0 of 6 (dose: 300.0 mg/kg/injection, schedule: Q01DX001 (ip), vehicle: other).
In the case of `CCCCCCCCCCCCCCCCCCCCCCOC(=O)CCC(=O)OCCCCCCCCCCCCCCCCCCCCCC`, the survivor count (dose: 400.0 mg/kg/injection, schedule: Q01DX009 (ip), vehicle: gum acacia) is 6 of 6.
Regarding `CCCCCCCCNC(=O)c1ccc([N+](=O)[O-])s1`, where the note is “dose: 50.0 mg/kg/injection, schedule: Q01DX005 (ip), vehicle: saline”, the survivor count is listed as 2 of 4.
For the compound `Cc1cc[n+]2cc3c(ccc4ccccc43)c(C)c2c1`, the survivor count (dose: 32.0 mg/kg/injection, schedule: Q01DX015 (ip), vehicle: carboxymethylcellulose (CMC)) is given as 4 of 6; the survivor count (dose: 50.0 mg/kg/injection, schedule: Q01DX001 (ip), vehicle: carboxymethylcellulose (CMC)) was 2 of 4; the survivor count (dose: 64.0 mg/kg/injection, schedule: Q01DX015 (ip), vehicle: carboxymethylcellulose (CMC)) is 0 of 6; the survivor count under setting [1] was 0 of 4; the survivor count under setting [2] was 0 of 4.
Consider `c1ccc(C(c2ccccc2)n2cc[n+](C(c3ccccc3)c3ccccc3)c2)cc1`, for which the survivor count was 0 of 3 (dose: 50.0 mg/kg/injection, schedule: Q04DX002 (ip), vehicle: gum acacia); 0 of 3 (dose: 100.0 mg/kg/injection, schedule: Q04DX002 (ip), vehicle: gum acacia); 0 of 3 (dose: 200.0 mg/kg/injection, schedule: Q04DX002 (ip), vehicle: gum acacia); 0 of 3 (dose: 400.0 mg/kg/injection, schedule: Q04DX002 (ip), vehicle: gum acacia).
Consider `Cc1ccc2c(C)c3c(ccc4ccccc43)c[n+]2c1`, for which the survivor count (dose: 30.0 mg/kg/injection, schedule: Q01DX015 (ip), vehicle: saline) is listed as 0 of 6; the survivor count (dose: 40.0 mg/kg/injection, schedule: Q01DX001 (ip), vehicle: saline) is listed as 0 of 4; the survivor count (dose: 45.0 mg/kg/injection, schedule: Q01DX015 (ip), vehicle: saline) is reported as 0 of 6; the survivor count (dose: 65.0 mg/kg/injection, schedule: Q01DX015 (ip), vehicle: saline) was 0 of 6; the survivor count (dose: 80.0 mg/kg/injection, schedule: Q01DX001 (ip), vehicle: saline) is 0 of 4; the survivor count under setting [3] is 0 of 4. The survivor count is given as 0 of 4 under setting [4] and 0 of 4 under setting [5].
In the case of `CN=C(c1ccc(NC(=O)c2cc(C(=O)Nc3ccc(C(=NC)N(C)C)cc3)cc([N+](=O)[O-])c2)cc1)N(C)C`, the survivor count is 0 of 6 and 2 of 6 (dose: 15.0 mg/kg/injection, schedule: Q01DX Z (ip), vehicle: saline); 0 of 6 (dose: 30.0 mg/kg/injection, schedule: Q01DX Z (ip), vehicle: saline); 0 of 6 (dose: 60.0 mg/kg/injection, schedule: Q01DX Z (ip), vehicle: saline); 0 of 6 (dose: 120.0 mg/kg/injection, schedule: Q01DX Z (ip), vehicle: saline).
Take `CCCCCCC(=O)NC1=C(N2CC2)C(=O)C(NC(=O)CCCCCC)=C(N2CC2)C1=O`: the T/C by setting is: (dose: 76.0 mg/kg/injection, schedule: Q01DX Z (ip), vehicle: carboxymethylcellulose (CMC)) 126 % of control; under setting [6], 138 % of control [4 of 6 alive]; under setting [7], 147 % of control; (dose: 200.0 mg/kg/injection, schedule: Q04DX003 (ip), vehicle: Klucel (hydroxypropylcellulose) (HPC)) 133 % of control; (dose: 400.0 mg/kg/injection, schedule: Q04DX003 (ip), vehicle: Klucel (hydroxypropylcellulose) (HPC)) 141 % of control; (dose: 400.0 mg/kg/injection, schedule: Q04DX003 (ip), vehicle: other) 141 % of control. The T/C (dose: 400.0 mg/kg/injection, schedule: Q04DX003 (ip), vehicle: saline) is 127 % of control. In addition, the survivor count runs as follows: (dose: 115.0 mg/kg/injection, schedule: Q01DX Z (ip), vehicle: methylcellulose (MC)) 4 of 6; (dose: 172.5 mg/kg/injection, schedule: Q01DX Z (ip), vehicle: methylcellulose (MC)) 0 of 6; (dose: 400.0 mg/kg/injection, schedule: Q01DX009 (ip), vehicle: other) 4 of 6; (dose: 400.0 mg/kg/injection, schedule: Q01DX009 (ip), vehicle: saline) 6 of 6.
Regarding `CC(=O)NNc1nc(C)cs1`, the survivor count under setting [8] was 2 of 6 and the survivor count (dose: 400.0 mg/kg/injection, schedule: Q04DX003 (ip), vehicle: saline with Tween-80) is given as 0 of 6.
For `Cc1ccc(NC(=O)NCCO)cc1C`, the survivor count (dose: 400.0 mg/kg/injection, schedule: Q04DX002 (ip), vehicle: saline with Tween-80) is 2 of 3.
With `NNC(=S)NCCc1ccccc1`, the survivor count was 3 of 6 and 4 of 6 under setting [6]; 0 of 6 (dose: 200.0 mg/kg/injection, schedule: Q01DX009 (ip), vehicle: Klucel (hydroxypropylcellulose) (HPC)); 0 of 6 under setting [9].
Consider `CC(c1ccc(Br)cc1)N(C)C` (configuration not stated), for which the survivor count by setting is: under setting [3], 3 of 6; under setting [4], 1 of 6; under setting [5], 1 of 6.
Consider `COc1ccc(C(=O)N/N=C/c2ccco2)cc1`, for which the survivor count under setting [9] is listed as 6 of 6.
Regarding `O=C1C2CC3C(CC2C(=O)[N]1[Sn]([c]1ccccc1)([c]1ccccc1)[c]1ccccc1)C1(Cl)C(Cl)=C(Cl)C3(Cl)C1(Cl)Cl` (configuration not stated), the survivor count reads like this: under setting [1], 0 of 4; under setting [2], 0 of 4; (dose: 400.0 mg/kg/injection, schedule: Q01DX001 (ip), vehicle: carboxymethylcellulose (CMC)) 0 of 4.
Turning to `Clc1ccc(N/N=C(\Oc2ccccc2)c2ccccc2)cc1`, the survivor count under setting [8] is on record as 4 of 4.
With `CC1=CC(C)(C(Cl)(Cl)Cl)C(C)=C/C1=N/O` (configuration not stated), the survivor count under setting [9] is on record as 2 of 6.
For `C1c2nnnn2Cc2nnnn21`, the survivor count is 0 of 3 (dose: 100.0 mg/kg/injection, schedule: Q04DX002 (ip), vehicle: saline); 0 of 3 (dose: 200.0 mg/kg/injection, schedule: Q04DX002 (ip), vehicle: saline); 0 of 3 (dose: 400.0 mg/kg/injection, schedule: Q04DX002 (ip), vehicle: saline).
For the compound `CC(/C=C/c1ccco1)=N\O`, the survivor count was 0 of 3 under setting [7] and 0 of 3 (dose: 200.0 mg/kg/injection, schedule: Q01DX009 (ip), vehicle: other).
